These are yes or no findings as the source states them, for the method shown. In cells and extracts the contact can be indirect. A result given as binding can be weak or reduced; the word gives no strength.
B1: IKKβ, endogenous (protein, UniProt O14920 1-756)
chain: MSWSPSLTTQTCGAWEMKERLGTGGFGNVIRWHNQETGEQIAIKQCRQELSPRNRERWCLEIQIMRRLTHPNVVAARDVPEGMQNLAPNDLPLLAMEYCQGGDLRKYLNQFENCCGLREGAILTLLSDIASALRYLHENRIIHRDLKPENIVLQQGEQRLIHKIIDLGYAKELDQGSLCTSFVGTLQYLAPELLEQQKYTVTVDYWSFGTLAFECITGFRPFLPNWQPVQWHSKVRQKSEVDIVVSEDLNGTVKFSSSLPYPNNLNSVLAERLEKWLQLMLMWHPRQRGTDPTYGPNGCFKALDDILNLKLVHILNMVTGTIHTYPVTEDESLQSLKARIQQDTGIPEEDQELLQEAGLALIPDKPATQCISDGKLNEGHTLDMDLVFLFDNSKITYETQISPRPQPESVSCILQEPKRNLAFFQLRKVWGQVWHSIQTLKEDCNRLQQGQRAAMMNLLRNNSCLSKMKNSMASMSQQLKAKLDFFKTSIQIDLEKYSEQTEFGITSDKLLLAWREMEQAVELCGRENEVKLLVERMMALQTDIVDLQRSPMGRKQGGTLDDLEEQARELYRRLREKPRDQRTEGDSQEMVRLLLQAIQSFEKKVRVIYTQLSKTVVCKQKALELLPKVEEVVSLMNEDEKTVVRLQEKRQKELWNLLKIACSKVRGPVSGSPDSMNASRLSQPGQLMSQPSTASNSLPEPAKKSEELVAEAHNLCTLLENAIQDTVREQDQSFTALDWSWLQTEEEEHSCLEQAS
B2: TNFR1 associated death domain protein (TRADD), endogenous (protein, UniProt Q15628 1-312)
chain: MAAGQNGHEEWVGSAYLFVESSLDKVVLSDAYAHPQQKVAVYRALQAALAESGGSPDVLQMLKIHRSDPQLIVQLRFCGRQPCGRFLRAYREGALRAALQRSLAAALAQHSVPLQLELRAGAERLDALLADEERCLSCILAQQPDRLRDEELAELEDALRNLKCGSGARGGDGEVASAPLQPPVPSLSEVKPPPPPPPAQTFLFQGQPVVNRPLSLKDQQTFARSVGLKWRKVGRSLQRGCRALRDPALDSLAYEYEREGLYEQAFQLLRRFVQAEGRRATLQRLVEALEENELTSLAEDLLGLTDPNGGLA

Legend:
[1] = biological target: tumour necrosis factor receptor 1 (TNFR1), endogenous (human (endogenous in HT-29, HeLa, Panc-1)); assay: co-IP; HeLa cells, endogenous proteins; anti-TNFR1 antibodies and protein G agarose; 250 ng/ml EGF for 15 min for the EGFR pair; TNF-α, T/Bi or T/C with or without EGF for the other partners
[2] = biological target: tumour necrosis factor receptor 1 (TNFR1), endogenous (human (endogenous in HT-29, HeLa, Panc-1)); assay: co-IP; HT-29 cells, endogenous proteins; lysis buffer with 1.0% Triton X-100, 150 mM NaCl, pH 7.5; anti-TNFR1 antibodies and protein G agarose (the text also names anti-EGFR and anti-p-EGFR); cells untreated or treated with TNF-α, T/Bi, T/C or T/Bi/Z, with or without erlotinib, EGFR WT or knockout
[3] = biological target: tumour necrosis factor receptor 1 (TNFR1), endogenous (human (endogenous in HT-29, HeLa, Panc-1)); assay: co-IP; Panc-1 cells, endogenous TNFR1 complex, T/Bi with or without EGF (Fig. S14D)

Row | Binder | binding [1] | binding [2] | binding [3]
1 | B1 | binds | – | –
2 | B2 | binds | binds | binds
